In PubChem BioAssay AID248 (DTP/NCI, 2004):
The list is a part of this screen's results and no random one: it gathers tests that were run many times, whatever their T/C, doses with no T/C, and many T/C values between a quarter and a half above the control. Further doses and runs are listed elsewhere. T/C gives the treated animals as a percentage of the vehicle group. Some doses have a count of surviving animals in place of a T/C: the source files T/C as zero there, which appears to mark a toxic dose or a test without result, not a measured value. Some survivor counts are full or nearly so, which does not show that the dose was tolerated: the source hardly ever lists a survival T/C far under the control, and the zero likely stands for such cases as well. Survivors were counted at the toxicity check, usually on the fifth day, unless a day is given; later deaths do not show. Schedule codes are those of the source, read here as Q, the interval in days (D) or hours (H), X, the number of doses. Some entries were tested several times; their values stand side by side, smallest first. Some schedules carry Z or #; the key to these is not given. For survival time, this PubChem deposit counts one and a half times the control or more as active, and values a quarter to a half above the control carry no call in these data; other NCI protocols may use other cut-offs. Some T/C values are followed by the survivors on the day toxicity was checked, most often the fifth; without a count, all were alive then.

System: L1210 leukemia ip in BDF1 mice, survival T/C
Assay: NCI In Vivo Anticancer Drug Screen. Data for tumor model L1210 Leukemia (intraperitoneal) in B6D2F1 (BDF1) mice
Settings: higher T/C = longer survival
[1] = T/C endpoint: mean survival time, dose: 200.0 mg/kg/injection, schedule: Q04DX003 (ip), vehicle: saline
[2] = T/C endpoint: mean survival time, dose: 400.0 mg/kg/injection, schedule: Q04DX003 (ip), vehicle: saline
[3] = T/C endpoint: mean survival time, dose: 200.0 mg/kg/injection, schedule: Q01DX009 (ip), vehicle: saline with Tween-80
[4] = T/C endpoint: mean survival time, dose: 400.0 mg/kg/injection, schedule: Q01DX009 (ip), vehicle: saline with Tween-80

Q: `O=CC(O)C(O)C(O)C(O)CO` (stereo not drawn) (tested in a mixture with another compound) was tested. Which survivor count (T/C endpoint: mean survival time, dose: 50.0 mg/kg/injection, schedule: Q04DX002 (ip), vehicle: saline) did it give?
A: Its survivor count is 3 of 3.

Q: For `FC(F)(F)C1=NC(=S)C(c2[nH]c(C(F)(F)F)nc2S)=N1`, which survivor count (T/C endpoint: mean survival time, dose: 400.0 mg/kg/injection, schedule: Q01DX009 (ip), vehicle: water) is on record?
A: The survivor count was 1 of 6.

Q: Which survivor count (T/C endpoint: mean survival time, dose: 100.0 mg/kg/injection, schedule: Q01DX009 (ip), vehicle: saline) does the source give for `Cc1cccc(Nc2c(N)nc(N)nc2N)c1` here?
A: The survivor count was 2 of 6.

Q: What about the survivor count [1] of the same molecule?
A: Its survivor count is 6 of 6.

Q: What about the survivor count [2] of the same molecule?
A: The survivor count was 0 of 6.

Q: How did the survivor count (T/C endpoint: mean survival time, dose: 300.0 mg/kg/injection, schedule: Q01DX001 (ip), vehicle: other) turn out when `COc1ccc(N(C=O)N=O)cc1` was run?
A: The survivor count was 0 of 6.

Q: Which results are given for `CN(C)N=Nc1ccccc1`?
A: T/C (T/C endpoint: mean survival time, dose: 16.0 mg/kg/injection, schedule: Q03HX024 (ip), vehicle: other): 125 % of control; T/C (T/C endpoint: mean survival time, dose: 25.0 mg/kg/injection, schedule: Q04DX003 (ip), vehicle: saline with Tween-80): 129 % of control; T/C (T/C endpoint: mean survival time, dose: 30.0 mg/kg/injection, schedule: Q01DX015 (ip), vehicle: carboxymethylcellulose (CMC)): 134 % of control; T/C (T/C endpoint: mean survival time, dose: 32.0 mg/kg/injection, schedule: Q03HX008 (ip), vehicle: other): 131 % of control; T/C (T/C endpoint: mean survival time, dose: 32.0 mg/kg/injection, schedule: Q03HX016 (ip), vehicle: other): 127 % of control; T/C (T/C endpoint: mean survival time, dose: 50.0 mg/kg/injection, schedule: Q04DX003 (ip), vehicle: saline with Tween-80): 132 % of control; T/C (T/C endpoint: mean survival time, dose: 54.0 mg/kg/injection, schedule: Q01DX015 (ip), vehicle: carboxymethylcellulose (CMC)): 136 % of control; T/C (T/C endpoint: mean survival time, dose: 60.0 mg/kg/injection, schedule: Q01DX015 (ip), vehicle: carboxymethylcellulose (CMC)): 129 % of control; survivor count (T/C endpoint: mean survival time, dose: 64.0 mg/kg/injection, schedule: Q01DX005 (iv), vehicle: other): 6 of 10; T/C (T/C endpoint: mean survival time, dose: 64.0 mg/kg/injection, schedule: Q01DX009 (sc), vehicle: other): 142 % of control; T/C (T/C endpoint: mean survival time, dose: 64.0 mg/kg/injection, schedule: Q04DX003 (ip), vehicle: saline): 134 % of control; T/C (T/C endpoint: mean survival time, dose: 80.0 mg/kg/injection, schedule: Q01DX015 (ip), vehicle: carboxymethylcellulose (CMC)): 137 % of control; T/C (T/C endpoint: mean survival time, dose: 90.0 mg/kg/injection, schedule: Q01DX015 (ip), vehicle: carboxymethylcellulose (CMC)): 129 % of control [5 of 6 alive]; survivor count (T/C endpoint: mean survival time, dose: 120.0 mg/kg/injection, schedule: Q01DX015 (ip), vehicle: carboxymethylcellulose (CMC)): 1 of 6, 2 of 6, 6 of 6; T/C (T/C endpoint: mean survival time, dose: 125.0 mg/kg/injection, schedule: Q01DX001 (ip), vehicle: saline with Tween-80): 128 % of control; survivor count (T/C endpoint: mean survival time, dose: 128.0 mg/kg/injection, schedule: Q01DX005 (iv), vehicle: other): 0 of 10; survivor count (T/C endpoint: mean survival time, dose: 128.0 mg/kg/injection, schedule: Q01DX009 (ip), vehicle: other): 3 of 10; survivor count (T/C endpoint: mean survival time, dose: 128.0 mg/kg/injection, schedule: Q01DX009 (sc), vehicle: other): 9 of 10; T/C (T/C endpoint: mean survival time, dose: 128.0 mg/kg/injection, schedule: Q04DX003 (ip), vehicle: other): 147 % of control; survivor count (T/C endpoint: mean survival time, dose: 128.0 mg/kg/injection, schedule: Q04DX003 (ip), vehicle: saline): 6 of 6; T/C (T/C endpoint: mean survival time, dose: 128.0 mg/kg/injection, schedule: Q08DX002 (ip), vehicle: other): 130 % of control; survivor count (T/C endpoint: mean survival time, dose: 200.0 mg/kg/injection, schedule: Q04DX003 (ip), vehicle: saline with Tween-80): 1 of 10; survivor count (T/C endpoint: mean survival time, dose: 250.0 mg/kg/injection, schedule: Q01DX001 (ip), vehicle: saline with Tween-80): 0 of 10; survivor count (T/C endpoint: mean survival time, dose: 256.0 mg/kg/injection, schedule: Q01DX001 (ip), vehicle: other): 3 of 10; T/C (T/C endpoint: mean survival time, dose: 256.0 mg/kg/injection, schedule: Q01DX001 (oral), vehicle: other): 132 % of control [9 of 10 alive]; survivor count (T/C endpoint: mean survival time, dose: 256.0 mg/kg/injection, schedule: Q01DX009 (oral), vehicle: other): 0 of 10; survivor count (T/C endpoint: mean survival time, dose: 256.0 mg/kg/injection, schedule: Q04DX003 (ip), vehicle: other): 6 of 10; survivor count (T/C endpoint: mean survival time, dose: 256.0 mg/kg/injection, schedule: Q04DX003 (ip), vehicle: saline): 0 of 6; survivor count (T/C endpoint: mean survival time, dose: 256.0 mg/kg/injection, schedule: Q08DX002 (ip), vehicle: other): 3 of 10; survivor count (T/C endpoint: mean survival time, dose: 400.0 mg/kg/injection, schedule: Q01DX001 (ip), vehicle: carboxymethylcellulose (CMC)): 0 of 4; survivor count (T/C endpoint: mean survival time, dose: 512.0 mg/kg/injection, schedule: Q01DX001 (oral), vehicle: other): 0 of 10; survivor count (T/C endpoint: mean survival time, dose: 512.0 mg/kg/injection, schedule: Q01DX009 (oral), vehicle: other): 0 of 10; survivor count (T/C endpoint: mean survival time, dose: 1024.0 mg/kg/injection, schedule: Q01DX001 (oral), vehicle: other): 0 of 10

Q: Which survivor count [3] does the source give for `CC1(C)CCc2ccccc2C1` here?
A: Its survivor count is 3 of 3.

Q: How did the survivor count (T/C endpoint: mean survival time, dose: 100.0 mg/kg/injection, schedule: Q04DX002 (ip), vehicle: saline with Tween-80) turn out when `COc1cc(NCCCCCNC(C)C)c2ncccc2c1` was run?
A: The survivor count was 0 of 3.

Q: And the survivor count (T/C endpoint: mean survival time, dose: 200.0 mg/kg/injection, schedule: Q04DX002 (ip), vehicle: saline with Tween-80)?
A: Its survivor count is 0 of 3.

Q: And the survivor count (T/C endpoint: mean survival time, dose: 400.0 mg/kg/injection, schedule: Q04DX002 (ip), vehicle: saline with Tween-80)?
A: Its survivor count is 0 of 3.

Q: `CCCC(C(=O)O)C(CCC)C(=O)O` (stereo not drawn) was tested. Which survivor count [4] did it give?
A: The survivor count was 6 of 6.

Q: `COc1cccc2c1C(=O)c1c(O)c3c(c(O)c1C2=O)C[C@@](O)(C(C)=O)C[C@@H]3OC1CC(NC(C)=O)C(O)C(C)O1` (stereo partly drawn) was tested. Which T/C (T/C endpoint: mean survival time, dose: 15.0 mg/kg/injection, schedule: Q01DX009 (ip), vehicle: saline) did it give?
A: The T/C was 125 % of control.

Q: What about the T/C (T/C endpoint: mean survival time, dose: 20.0 mg/kg/injection, schedule: Q01DX009 (ip), vehicle: propolene glycol) of the same molecule?
A: Its T/C is 135 % of control.

Q: And the T/C (T/C endpoint: mean survival time, dose: 30.0 mg/kg/injection, schedule: Q01DX009 (ip), vehicle: saline)?
A: The T/C was 130 % of control.

Q: And the T/C (T/C endpoint: mean survival time, dose: 40.0 mg/kg/injection, schedule: Q01DX009 (ip), vehicle: propolene glycol)?
A: Its T/C is 135 % of control.

Q: What about the T/C (T/C endpoint: mean survival time, dose: 80.0 mg/kg/injection, schedule: Q01DX001 (ip), vehicle: saline) of the same molecule?
A: The T/C was 127 % of control.

Q: And the T/C (T/C endpoint: mean survival time, dose: 80.0 mg/kg/injection, schedule: Q01DX009 (ip), vehicle: propolene glycol)?
A: Its T/C is 135 % of control.

Q: And the survivor count (T/C endpoint: mean survival time, dose: 160.0 mg/kg/injection, schedule: Q01DX009 (ip), vehicle: propolene glycol)?
A: The survivor count was 6 of 6.

Q: And the T/C (T/C endpoint: median survival time, dose: 150.0 mg/kg/injection, schedule: Q01DX001 (ip), vehicle: propolene glycol, evaluated on day 5)?
A: The T/C was 135 % of control.

Q: And the T/C (T/C endpoint: median survival time, dose: 150.0 mg/kg/injection, schedule: Q01DX001 (ip), vehicle: propolene glycol, evaluated on day 30)?
A: The T/C was 133 % of control.

Q: And the T/C (T/C endpoint: median survival time, dose: 300.0 mg/kg/injection, schedule: Q01DX001 (ip), vehicle: propolene glycol, evaluated on day 5)?
A: Its T/C is 139 % of control.

Q: And the T/C (T/C endpoint: median survival time, dose: 300.0 mg/kg/injection, schedule: Q01DX001 (ip), vehicle: propolene glycol, evaluated on day 30)?
A: Its T/C is 133 % of control.

Q: How did the survivor count (T/C endpoint: mean survival time, dose: 200.0 mg/kg/injection, schedule: Q01DX001 (ip), vehicle: carboxymethylcellulose (CMC)) turn out when `CCOC(=O)n1cnc2ncnc(SC)c21` was run?
A: Its survivor count is 2 of 4.

Q: How did the survivor count (T/C endpoint: mean survival time, dose: 400.0 mg/kg/injection, schedule: Q04DX002 (ip), vehicle: saline) turn out when `CC(F)C(Br)C(=O)O` (stereo not drawn) was run?
A: The survivor count was 1 of 3.

Q: Which results are given for `CCN(CC)CC(=O)NCC(CCN(C)C)(CCN(C)C)c1cccc2ccccc12`?
A: survivor count [3]: 6 of 6; survivor count [4]: 6 of 6

Q: With `CC(C)(C)Sc1cccnc1` as the molecule, how does the survivor count [4] read?
A: Its survivor count is 6 of 6.

Q: `Cc1ccc(S(=O)(=O)[n+]2ccc(C)cc2)cc1` was tested. Which survivor count (T/C endpoint: mean survival time, dose: 400.0 mg/kg/injection, schedule: Q04DX002 (ip), vehicle: Klucel (hydroxypropylcellulose) (HPC)) did it give?
A: Its survivor count is 0 of 3.

Q: For `COc1ccc(C(=O)Nc2ccc(C3=NCCN3)cc2)cc1C(=O)Nc1ccc(C2=NCCN2)cc1`, which T/C (T/C endpoint: mean survival time, dose: 15.0 mg/kg/injection, schedule: Q01DX Z (ip), vehicle: saline) is on record?
A: The T/C was 131 and 148 % of control.

Q: And the survivor count (T/C endpoint: mean survival time, dose: 240.0 mg/kg/injection, schedule: Q01DX Z (ip), vehicle: saline)?
A: Its survivor count is 1 of 6.

Q: And the survivor count (T/C endpoint: mean survival time, dose: 480.0 mg/kg/injection, schedule: Q01DX Z (ip), vehicle: saline)?
A: The survivor count was 0 of 6.

Q: With `N/C(Cc1ccc(Cl)cc1)=N/O` as the molecule, how does the survivor count (T/C endpoint: mean survival time, dose: 400.0 mg/kg/injection, schedule: Q04DX003 (ip), vehicle: Klucel (hydroxypropylcellulose) (HPC)) read?
A: Its survivor count is 4 of 6.

Q: Which results are given for `CCOC(=O)/C=C/C(=O)O.[Co]`?
A: survivor count [1]: 0 of 4; survivor count [2]: 0 of 4

Q: `O=C1C2=C(CCC2)c2ccccc21` was tested. Which survivor count (T/C endpoint: mean survival time, dose: 400.0 mg/kg/injection, schedule: Q01DX001 (ip), vehicle: saline) did it give?
A: The survivor count was 3 of 6.
